Reference: article PMC5937789

Sequences of proteins named here, by UniProt entry; tags and fusion partners are left off. A change or cut given only in a name is not applied to a line headed by its entry.
UniProt Q9W3M8: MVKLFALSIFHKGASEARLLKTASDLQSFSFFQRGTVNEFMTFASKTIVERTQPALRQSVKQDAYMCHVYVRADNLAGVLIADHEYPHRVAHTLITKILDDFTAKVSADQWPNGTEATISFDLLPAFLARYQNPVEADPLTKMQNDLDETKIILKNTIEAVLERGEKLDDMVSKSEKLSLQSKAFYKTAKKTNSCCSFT

B1: endogenous Carnation/Car (Vps33A ortholog) (protein, UniProt Q9Y1I2 1-617)
chain: MFPHLKGHGQRVNLQLLQEAACRELLQQLDRIEGSKVIVLDETMIGPLDLVTRPKLFADRGIRLLALKPELHLPREVANVVYVMRPRVALMEQLAAHVKAGGRAAAGRQYHILFAPRRSCLCVSQLEVSGVLGSFGNIEELAWNYLPLDVDLVSMEMPNAFRDVSVDGDTSSLYQAAVGLVQLQRLYGRIPKIYGKGEFAHRVWEHAKQLGRDERTLYNGDKGVVDQLILLDRSIDLLSPLATQLTYEGLIDEFYGIRQNKLTLPAENFPSDGALPGGGGSGPRVEESQSLLGDTEKKTILLHSGEQLYAELRNKHFNEVTKLLARKAREIHVQMHATSQDKSVQEIKSFVENLLPQLMAQKKATSEHTAIAGLLHEQVNAVRFADDLAAEQEFMVCADIDKPSAYIEDLIACRVELNRVLRLICMQCHAASGFKEKLLNHYKRELVHVYGLEVLLTISNLEKSGLLHLQTESRAYSVLRKTLHLTVDDNVEIEPKDISYVHSFYAPLTARIVEHSLKPLGWQTLKSQINNLPGPTFEDFQAQLVGIGGRHTVTTVSEGSLLNVPRVVLVCFVGGCTFAEIAALRFLAAQEDNNVEFLIATTKVVNKHSFLDSLMSS
B2: myc-Dor/Vps18 (protein, UniProt Q24314 1-1002)
chain: MDTSMPNQPKFLPRIEHNSSGATANSYVATASGNPFETDEEDEIFSRHKMVLRVPSNCTGDLMHLAVSRNWLVCLLGTPERTTLLRFFLPRAIPPGEAVLEKYLSGSGYKITRMFLDPTGHHIIIALVPKSATAGVSPDFLYIHCLESPQAQQLKVRRIEKFKDHEITAVAFNPYHGNESSTGPILLGTSRGLIFETELNPAADGHVQRKQLYDLGLGRPKYPITGLKLLRVPNSSRYIIVVTSPECIYTFQETLKAEERSLQAIFAGYVSGVQEPHCEERKTDLTFSQLRFFAPPNSKYPKQWAWLCGEGIRVGELSIEANSAATLIGNTLINLDFEKTMHLSYGERRLNTPKAFVLTEYHAVLLYADHVRAICLLNQEQVYQEAFDEARVGKPLSIERDELTGSIYVYTVKTVFNLRVTREERNVWRIYLDKGQYELATAHAAEDPEHLQLVLCQRADAAFADGSYQVAADYYAETDKSFEEVCLKFMVLPDKRPIINYVKKRLSRVTTKPMETDELDEDKMNIIKALVIWLIDLYLIQINMPDKDEEWRSSWQTEYDEFMMEAHVLSCTRQNRETVRQLIAEHADPRNMAQFAIAIGDYDEVVAQQLKAECYAEALQTLINQRNPELFYKYAPELITRLPKPTVDALMAQGSRLEVEKLVPTLIIMENREQREQTQRYLEFAIYKLNTTNDAIHNFLLHLYAEHEPKLLMKYLEIQGRDESLVHYDIYYAHKVCTDLDVKEARVFLECMLRKWISAVDLALTFDMKLAKETASRPSDSKIRRKLWLRIAYHDIKGTNDVKKALNLLKECDLLRIEDLLPFFADFEKIDNFKEAICDALRDYNQRIQELQREMAETTEQTDRVTAELQQLRQHSLTVESQDTCEICEMMLLVKPFFIFICGHKFHSDCLEKHVVPLLTKEQCRRLGTLKQQLEAEVQTQAQPQSGALSKQQAMELQRKRAALKTEIEDILAADCLFCGLLISTIDQPFVDDWEQVNVEWE
B3: endogenous Syx17 (protein, UniProt Q9VZC9 1-301)
chain: MTRDEKLPLKQAEVSIQRFQDVAVPHHLSLLKNHRSNIEKSLALGDWQKIKKEELNAMRVIKQIKNLLLEMDALREKVREEDLERFDDLMKPGRDTAFAGMKEFAELQLKSPTSTLSSQYDDDLDNQPQEVDMNSLPAHRHMPQLQLNFQLEEHQLAQRQACLDQMENLQQEIYDLHGMFQGMRQLTAEQSVAVEKIADNAEEALENVQQGELNLRRALTYKKAMYPVVGALLGTCVGGPIGLVAGMKAGGLAAVGCGILGFTGGSVLKANPNVMHGNIEEEQVEPDSESTERLELKEKPE

Legend:
[1] = biological target: GST tagged Ykt6[R164Q] full length (Drosophila); test: pull-down; 0.5 mg GST fused bait immobilised on glutathione resin; 40 ul resin with 20 mg fly (L3 larval) lysate in 20 mM Tris, 50 mM NaCl, 0.1% Triton-X, 2 mM beta-mercaptoethanol, 30 min at 4 C; washes with 300 mM NaCl; western blot; only the target purified
[2] = biological target: GST tagged, full length Ykt6 (Drosophila) (UniProt Q9W3M8); test: as above

Binder | binding [1] | binding [2]
B1 | binds | binds
B2 | binds | binds
B3 |  | binds

These are yes or no findings as the source states them, for the method shown. In cells and extracts the contact can be indirect. Binding calls can cover weak binding; strength is not graded here. Where a sequence is shown, tags or fusion partners need not be part of it.
